From US11903929B2, “Method for inhibiting dengue virus infection” (FLORIDA STATE UNIVERSITY RESEARCH FOUNDATION, INC., priority 2018, dated 2024)

Tested on: Zika virus
Assay: Zika viral production assay (infectious viral titer assay on Vero cells)
Assay type: cell-based
Conditions: read-out: Anti-ZIKV activity IC50

## COc1cc2c(c(OC)c1OC)-c1ccc(OC)c(=O)cc1[C@@H](NC(C)=O)CC2 [NCGC00025125-18, N-[(7S)-1,2,3,10-tetramethoxy-9-oxo-6,7-dihydro-5H-benzo[a]heptalen-7-yl]acetamide]
  IC50: 0.709 nM
